From patent publication US11946064B2, “Compositions and therapeutic methods of microRNA gene delivery” (The Brigham and Women's Hospital, Inc., priority 2018, dated 2024)
For at least one compound, name, drawing or mass did not settle the structure.

How the values were obtained:
[1] = tested on: epigenetic proteins in tumor cells; test: western blots of tumors from GBM mouse model treated with TMZ; settings: in vivo
[2] = tested on: miR-124, miR-128, and miR-137 in GICs; test: qRT-PCR of naturally-expressed microRNAs in GICs after TMZ; format: cell-based; settings: vs control conditions
[3] = tested on: epigenetic proteins in GBM cells; test: western blots of epigenetic proteins in GBM cells after TMZ in vitro; format: cell-based

Cn1nnc2c(C(N)=O)ncn2c1=O [TMZ, temozolomide]
expression of epigenetic proteins in tumor cells from treated mice [1]: upregulation of epigenetic proteins | expression of naturally-expressed miR-124, miR-128, and miR-137 [2]: reduced expression | expression of epigenetic proteins in GBM cells in vitro [3]: upregulation of epigenetic proteins
